Results as given in article PMC4605311, “Structure of mitochondrial poly(A) RNA polymerase reveals the structural basis for dimerization, ATP selectivity and the SPAX4 disease phenotype” (Nucleic Acids Research, 2015).
These are yes or no findings as the source states them, for the method shown. In cells and extracts the contact can be indirect. Some results given as binding are weak or reduced against the parent protein; the word gives no strength. Where a sequence is shown, tags or fusion partners need not be part of it.

Biological target: T1, maltose-binding protein-tagged WT chicken mtPAP (Gallus gallus) (UniProt F1NBW0)
T1 sequence: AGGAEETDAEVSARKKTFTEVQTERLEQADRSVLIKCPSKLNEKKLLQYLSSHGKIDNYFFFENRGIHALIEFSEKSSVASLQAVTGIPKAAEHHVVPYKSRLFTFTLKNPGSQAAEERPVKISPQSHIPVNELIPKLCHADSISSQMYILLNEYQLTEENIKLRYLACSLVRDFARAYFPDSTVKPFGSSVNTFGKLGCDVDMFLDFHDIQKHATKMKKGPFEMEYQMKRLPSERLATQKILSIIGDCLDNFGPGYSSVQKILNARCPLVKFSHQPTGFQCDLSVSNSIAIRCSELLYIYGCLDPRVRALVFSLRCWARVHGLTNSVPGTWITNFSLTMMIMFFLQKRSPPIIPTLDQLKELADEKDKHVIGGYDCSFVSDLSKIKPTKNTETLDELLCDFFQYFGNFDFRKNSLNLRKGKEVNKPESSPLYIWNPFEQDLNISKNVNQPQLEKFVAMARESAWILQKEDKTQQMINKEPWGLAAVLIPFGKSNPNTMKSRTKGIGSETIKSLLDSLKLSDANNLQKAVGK
Experiment: pull-down; co-expression of MBP–mtPAP WT and His-tagged D237N mtPAP in KRX cells; soluble lysate on amylose resin, eluted with 40 mM maltose, then HisTrap column; SDS gel of the product

- binding: binds
B1: His-tagged D237N chicken mtPAP (enzyme, UniProt F1NBW0 37-568)
chain: AGGAEETDAEVSARKKTFTEVQTERLEQADRSVLIKCPSKLNEKKLLQYLSSHGKIDNYFFFENRGIHALIEFSEKSSVASLQAVTGIPKAAEHHVVPYKSRLFTFTLKNPGSQAAEERPVKISPQSHIPVNELIPKLCHADSISSQMYILLNEYQLTEENIKLRYLACSLVRDFARAYFPDSTVKPFGSSVNTFGKLGCNVDMFLDFHDIQKHATKMKKGPFEMEYQMKRLPSERLATQKILSIIGDCLDNFGPGYSSVQKILNARCPLVKFSHQPTGFQCDLSVSNSIAIRCSELLYIYGCLDPRVRALVFSLRCWARVHGLTNSVPGTWITNFSLTMMIMFFLQKRSPPIIPTLDQLKELADEKDKHVIGGYDCSFVSDLSKIKPTKNTETLDELLCDFFQYFGNFDFRKNSLNLRKGKEVNKPESSPLYIWNPFEQDLNISKNVNQPQLEKFVAMARESAWILQKEDKTQQMINKEPWGLAAVLIPFGKSNPNTMKSRTKGIGSETIKSLLDSLKLSDANNLQKAVGK
